Source: PubChem BioAssay AID1508597 (Cure First, 2020)
Assay: 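Survival screen with siRNA in ovarian cancer cells derived from patients, with or without rucaparib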 (primary screen). Cells: human ovarian carcinoma lines grown from tumours: OCI-P5x (papillary serous) and OCI-C5x (clear cell). Knock-down reagent: siRNA pool against human genes, 1.25 pmol siRNA per well. Time to read-out: 72 h or 96 h, depending on the cell culture. Conditions: rucaparib 20 µM (about IC30) or vehicle, present until read-out. Rucaparib or vehicle: Rucaparib. Cell line: OCI-C5x (clear cell). Detection: 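ATP luminescence measured at 72 or 96 h according to the culture, then normalised and expressed as percent viability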. Scale: viability, normalised: higher = more viable cells remaining. Hit rule: 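Active when normalised viability falls below 80 percent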. Meaning of the calls: active = viability under 80%; inactive = viability 80% or more.
This is an unselected part of the about 2,100 reagents, in one setting of the screen. 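Calls flag viability under 80% in either arm, not effects specific to rucaparib; the reference for percent is not stated.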 The record does not give: the 100% reference.

SUPT3H, technical replicate 1 gave viability, normalised (%) = 50.5; active. SUPT3H, technical replicate 2 gave viability, normalised (%) = 43.2; active. SUPT3H, technical replicate 3 gave viability, normalised (%) = 50; active. For H4C5, technical replicate 1, the values are viability, normalised (%) = 59.5; active. H4C5, technical replicate 2 scored viability, normalised (%) = 38.8; active. H4C5, technical replicate 3 showed viability, normalised (%) = 42; active.

With GON4L, technical replicate 1, the values are viability, normalised (%) = 40; active. GON4L, technical replicate 2 showed viability, normalised (%) = 39.1; active. With GON4L, technical replicate 3, the values are viability, normalised (%) = 42.9; active. PDXK, technical replicate 1 scored viability, normalised (%) = 55.8; active. For PDXK, technical replicate 2, the entry reads viability, normalised (%) = 54.1; active. PDXK, technical replicate 3 gave viability, normalised (%) = 55.8; active.

With NFATC1, technical replicate 1 the deposit lists viability, normalised (%) = 35.6; active. NFATC1, technical replicate 2 gave viability, normalised (%) = 40.6; active. For NFATC1, technical replicate 3, the entry reads viability, normalised (%) = 30.4; active. TTBK2, technical replicate 1 showed viability, normalised (%) = 77.1; active. For TTBK2, technical replicate 2, the entry reads viability, normalised (%) = 73.4; active. TTBK2, technical replicate 3 showed viability, normalised (%) = 50.1; active.

With STK4, technical replicate 1 the deposit lists viability, normalised (%) = 48.5; active. With STK4, technical replicate 2, the entry reads viability, normalised (%) = 41.5; active. STK4, technical replicate 3 gave viability, normalised (%) = 55.2; active.
